# Results from paper PMC7819943, “Rice protein-binding microarrays: a tool to detect cis-acting elements near promoter regions in rice”.
# By UniProt entry, the sequences of proteins in these tests, tags left out.
# UniProt Q0JBA9, entry or part of it: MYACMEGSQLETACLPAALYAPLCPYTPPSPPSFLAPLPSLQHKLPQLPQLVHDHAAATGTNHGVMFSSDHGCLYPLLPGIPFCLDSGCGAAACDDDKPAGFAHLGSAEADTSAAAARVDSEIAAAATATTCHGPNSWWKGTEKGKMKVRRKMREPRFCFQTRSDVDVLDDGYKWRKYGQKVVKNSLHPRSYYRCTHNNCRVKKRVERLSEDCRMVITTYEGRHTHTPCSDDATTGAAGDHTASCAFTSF
# The list shows a part of the results.
# Target: OsWRKY34 (Oryza sativa, UniProt Q0JBA9 1-250)
# Assay: protein-binding microarray (RPBM); PBS, 2% BSA, 51.3 ng/ul salmon testes DNA, 50 uM zinc acetate, 200 nM TF, 25 C, 1 h; high values mean tight binding
# Conditions: protein: recombinant; tags: N-terminal polyhistidine and DsRed monomer fusion (pET32a); label: CyDye5-dUTP incorporated in the synthesized complementary strand; 3' TTTTT single-stranded linker to array surface; dsDNA, one strand shown
# How it was run: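 Transcription factors, each fused N-terminally to a polyhistidine tag and DsRed, were expressed in E. coli BL21-CodonPlus and purified on Ni–NTA. A custom Agilent array was made double-stranded by primer extension with Cy5-dUTP and blocked with 2% BSA. It was incubated with 200 nM protein in PBS, 2% BSA, salmon testes DNA and 50 µM zinc acetate at 25 °C for 1 h, then washed. The binding signal is per-feature fluorescence intensity (arbitrary units) read on an Axon 4000B scanner.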
row,Sequence,binding signal
1,GGCCATCGAGTCGTTTTCCGTTCCAACATCAACCAACAAGCGGAGTCACCTAGTGCAG,9300 fluorescence intensity (a.u.)
2,CCCACTCCGTTGTTGTTTCCTACCTGTACTGTATCGCGCGCGGAGTCACCTAGTGCAG,9380 fluorescence intensity (a.u.)
3,GGCCCAACTAAGCAACCCTTTTCTTTTGGAAAAAGTATACCGGAGTCACCTAGTGCAG,9310 fluorescence intensity (a.u.)
4,GAACAAGGGGACGTTTTTGTTTGTTTGCTCTCGTGCCTTTCGGAGTCACCTAGTGCAG,14900 fluorescence intensity (a.u.)
5,TCTCGCTCTCGCCATCTGCTGCTTGCCACCACCACATCGTCGGAGTCACCTAGTGCAG,8380 fluorescence intensity (a.u.)
6,CTTCTATTTTCTTTCTGCTCTTCTCTTCTCTTGTCTACTTCGGAGTCACCTAGTGCAG,10300 fluorescence intensity (a.u.)
7,AATTCCCATTTCCGTCACGACTCTGACTGCCCTCGCTAATCGGAGTCACCTAGTGCAG,8400 fluorescence intensity (a.u.)
8,ACCGCCGCTTTGTTTGCAGCTCGCGCTTCCTGTCGACATGCGGAGTCACCTAGTGCAG,9320 fluorescence intensity (a.u.)
9,CTCCTCGCCAACCACACCACATCTCAAACTCTCTACACACCGGAGTCACCTAGTGCAG,10200 fluorescence intensity (a.u.)
10,CTCTCGTCTCATCTTCTTCCTCAACTCTCTTCTCATATCTCGGAGTCACCTAGTGCAG,8780 fluorescence intensity (a.u.)
11,ATACACATATTATCTCACAATACATGCATCGATTAAAATACGGAGTCACCTAGTGCAG,8040 fluorescence intensity (a.u.)
12,CACACTGTCATGTTCCTCTGACCAAACAGCACAAGGTTGCCGGAGTCACCTAGTGCAG,8210 fluorescence intensity (a.u.)
13,GATTTTTATTTTACAAATATGTCGTTTTGTTTTGTTCATTCGGAGTCACCTAGTGCAG,10000 fluorescence intensity (a.u.)
14,GCCTGGGATGAGAATGGTGTGTTTATTTACACTACCCTGACGGAGTCACCTAGTGCAG,10300 fluorescence intensity (a.u.)
15,CCCGTGCCACCGTATCATTCACTCCTCCCGTCCCTATCGCCGGAGTCACCTAGTGCAG,9270 fluorescence intensity (a.u.)
16,CTCGCGGTTGATCTCTCCCGGCCTTGTACGCCACCCGCGTCGGAGTCACCTAGTGCAG,9250 fluorescence intensity (a.u.)
17,CTTGCCATATGGGTGTCTCGTGTTTCTTTGTTACGAGTGTCGGAGTCACCTAGTGCAG,9290 fluorescence intensity (a.u.)
18,CCATCTTCATCTTCTTGTCGTCTTCGTCTCGACAGACAAACGGAGTCACCTAGTGCAG,11300 fluorescence intensity (a.u.)
19,TAAGATAGCCTGCCTTTTGAGCCTGTGTTACTTACTACTCCGGAGTCACCTAGTGCAG,9470 fluorescence intensity (a.u.)
20,ACTCACCACACCAGCCGCCGCCGCCTCCTGAGCCACGCAGCGGAGTCACCTAGTGCAG,9130 fluorescence intensity (a.u.)
21,GCCGCCTCGTCTGCAACCGCCTCCGCCTCCACGACCGACTCGGAGTCACCTAGTGCAG,10100 fluorescence intensity (a.u.)

row,Sequence,binding signal
1,ACTGAACTCTCTGTGGGTTGTTGAACAACCGCTGGATCATCGGAGTCACCTAGTGCAG,8440 fluorescence intensity (a.u.)
2,AACATATTTATGGGGTAAATTTATCATTCTTGTCTTGATACGGAGTCACCTAGTGCAG,9380 fluorescence intensity (a.u.)
3,TTATTATTGTTATTTTTTTCCGTTTTTGTTTCTGAGCATTCGGAGTCACCTAGTGCAG,8660 fluorescence intensity (a.u.)
4,TGATGGGTGGGTATGCGAAGCTTGGTAAATTTCAAGAAAGCGGAGTCACCTAGTGCAG,8490 fluorescence intensity (a.u.)
5,AGGAGAGAGAGAGGGAGGGTAGGTGAGGGGATTTGATATTCGGAGTCACCTAGTGCAG,9440 fluorescence intensity (a.u.)
6,ATAATACGGACAATCAAACATATTTTAAAAAGTCAACGACCGGAGTCACCTAGTGCAG,8120 fluorescence intensity (a.u.)
7,CTATTTCACCGCTTCGCTCCATCCATCCGTTCCGTTTAGTCGGAGTCACCTAGTGCAG,13800 fluorescence intensity (a.u.)
8,ACTAATACTTATCCATCCACCCACTCCCCTGTGCATTAACCGGAGTCACCTAGTGCAG,8800 fluorescence intensity (a.u.)
9,CCCCATTTCGTCTCGCGGTGAGTTTTTGGTAGTTTAGTTTCGGAGTCACCTAGTGCAG,10600 fluorescence intensity (a.u.)
10,CTTCTTCTGCGCCGCCGCCGCCGCCGCCGCCGCCGCCGGACGGAGTCACCTAGTGCAG,8090 fluorescence intensity (a.u.)
11,CGTTGGCTTTTGCTTTGCTTTTTCTCTTGCGCGTTGTGCTCGGAGTCACCTAGTGCAG,12700 fluorescence intensity (a.u.)
12,TTTTTTTTTTTTGTTGGGCTTGTGACTTGTGGGGTGTGCACGGAGTCACCTAGTGCAG,11600 fluorescence intensity (a.u.)
13,AATCCAGGTATGCACTAGCTTGTTTTGGCAGGTCAGCTGACGGAGTCACCTAGTGCAG,10500 fluorescence intensity (a.u.)
14,TTTCACGCTACATTTTTAATCCTGGGAATATTGGGCTGGTCGGAGTCACCTAGTGCAG,10500 fluorescence intensity (a.u.)
15,TTCTTGCCTTTATCTTGCAGCCATTGCACACACCTCACTTCGGAGTCACCTAGTGCAG,10600 fluorescence intensity (a.u.)
16,TTTATCAATTGTTCTACAATATGTCATTGGGTTGGGCCTTCGGAGTCACCTAGTGCAG,9740 fluorescence intensity (a.u.)
17,CGACATCTCTGAAACATTTCTCCTCGACCACGGCAACCCACGGAGTCACCTAGTGCAG,8630 fluorescence intensity (a.u.)
18,ATTATTTTTATCCTCGTTTGCACGAAAGAGCATTTTATAACGGAGTCACCTAGTGCAG,8860 fluorescence intensity (a.u.)
19,TTCCGGGGCCTTATCTCTCTCTCTCTCCGAAACAGCCGACCGGAGTCACCTAGTGCAG,8380 fluorescence intensity (a.u.)
20,TTTCCCTATTTCTTTCAGATTTTATATGTAGAAAGAATCACGGAGTCACCTAGTGCAG,11700 fluorescence intensity (a.u.)
21,GCAATTCACACATCCATTGTCCAAGATCCTGATAAAGTTCCGGAGTCACCTAGTGCAG,8210 fluorescence intensity (a.u.)

# Pulled one by one from the list above, three records:
row,Sequence,binding signal
9,CCCCATTTCGTCTCGCGGTGAGTTTTTGGTAGTTTAGTTTCGGAGTCACCTAGTGCAG,10600 fluorescence intensity (a.u.)
12,TTTTTTTTTTTTGTTGGGCTTGTGACTTGTGGGGTGTGCACGGAGTCACCTAGTGCAG,11600 fluorescence intensity (a.u.)
20,ACTCACCACACCAGCCGCCGCCGCCTCCTGAGCCACGCAGCGGAGTCACCTAGTGCAG,9130 fluorescence intensity (a.u.)
